Assay results taken from publication PMC7819943, “Rice protein-binding microarrays: a tool to detect cis-acting elements near promoter regions in rice”.
The other results are listed elsewhere or left out.

Chains of the proteins cited; added tags and fusions are not shown.
UniProt Q0JBA9, entry or part of it: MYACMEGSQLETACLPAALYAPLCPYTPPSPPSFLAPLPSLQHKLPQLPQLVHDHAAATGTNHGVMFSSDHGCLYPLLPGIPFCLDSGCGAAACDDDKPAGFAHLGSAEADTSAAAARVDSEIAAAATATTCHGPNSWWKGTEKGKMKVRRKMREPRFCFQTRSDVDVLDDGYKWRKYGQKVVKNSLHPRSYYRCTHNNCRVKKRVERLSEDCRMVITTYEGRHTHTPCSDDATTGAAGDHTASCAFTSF

Target: OsWRKY34 (Oryza sativa, UniProt Q0JBA9 1-250)
Experiment: protein-binding microarray (RPBM); PBS, 2% BSA, 51.3 ng/ul salmon testes DNA, 50 uM zinc acetate, 200 nM TF, 25 C, 1 h; high values mean tight binding
Conditions: protein: recombinant; tags: N-terminal polyhistidine and DsRed monomer fusion (pET32a); label: CyDye5-dUTP incorporated in the synthesized complementary strand; 3' TTTTT single-stranded linker to array surface; dsDNA, one strand shown
In short: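 Using Ni–NTA, transcription factors fused N-terminally to polyhistidine and DsRed were purified after expression in E. coli BL21-CodonPlus. These were incubated at 200 nM with a blocked, double-stranded custom Agilent array for 1 h at 25 °C in a buffer containing 50 µM zinc acetate, and the array was washed. The binding signal is per-feature fluorescence intensity (arbitrary units) on an Axon 4000B scanner.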

Sequence | binding signal
GCCGCCACCGCAACATTCTCATTTCTCTCTCTCGTCCCCGCGGAGTCACCTAGTGCAG | 8900 fluorescence intensity (a.u.)
ATTTTTTCTTATCTCTCACTCGATTTTCTCACTAAAATTTCGGAGTCACCTAGTGCAG | 12400 fluorescence intensity (a.u.)
TACCTGTTTTGAGCTCTTTTTCAGAAATTTCTTCTTATCTCGGAGTCACCTAGTGCAG | 11200 fluorescence intensity (a.u.)
CCTCCCACTTCGAATTATTTATTTTTGGGAATATTTTTCTCGGAGTCACCTAGTGCAG | 10800 fluorescence intensity (a.u.)
TTGTTGAATTTGCTATTATTATTTTTCGCTTCCATAATACCGGAGTCACCTAGTGCAG | 9250 fluorescence intensity (a.u.)
CAATGTGGTCACGTGAATTCTCTCTGTCAGTTTTGATGTGCGGAGTCACCTAGTGCAG | 9180 fluorescence intensity (a.u.)
AGTTCTGTTGCAAGTACTCTTGCCGGCGTCTTGTCCACACCGGAGTCACCTAGTGCAG | 8960 fluorescence intensity (a.u.)
TGAAGCATGTGGTGGGCATTTTCGTCTTTCTCGAATTCATCGGAGTCACCTAGTGCAG | 9980 fluorescence intensity (a.u.)
CCAATCCGCGCAATCCCCGCCTCCGCGATCACCAAATCCGCGGAGTCACCTAGTGCAG | 8340 fluorescence intensity (a.u.)
ACAGAACGAACCACCTATACGTACGTTTTCTCTCTTTTGACGGAGTCACCTAGTGCAG | 8040 fluorescence intensity (a.u.)
TAGTTGTTGACAATTGCATATTAGTTGCACCATTATATATCGGAGTCACCTAGTGCAG | 8400 fluorescence intensity (a.u.)
GCCCCGCCGCCGCACACCATCACCGTCCTCGAAATGTCGACGGAGTCACCTAGTGCAG | 8150 fluorescence intensity (a.u.)
AACGTACGCACATACACACCCCTTACGAATACACACACGCCGGAGTCACCTAGTGCAG | 8100 fluorescence intensity (a.u.)
ACTGTCTTAAATTACTGCTGCAGTTAGGCACACATCGTTTCGGAGTCACCTAGTGCAG | 8930 fluorescence intensity (a.u.)
GTTCGAGTATAAGCTTTTTTTTGGTCAATTGTATTCATCTCGGAGTCACCTAGTGCAG | 9450 fluorescence intensity (a.u.)
CTTGTTGCAGGCCAAATCTTTCTTCATTTTTGGAATTAATCGGAGTCACCTAGTGCAG | 8290 fluorescence intensity (a.u.)
TTGTTCGGTTAGATTATGGGGATTTTTTTTCCTTTTCTTTCGGAGTCACCTAGTGCAG | 9160 fluorescence intensity (a.u.)
TGTATATAGCAAGCTTCGGTTACTCGCATGTTCTTATTTACGGAGTCACCTAGTGCAG | 8200 fluorescence intensity (a.u.)
ACATCTGCTTCCCAGCATCCTGCAACTTTGGTTATAAGGTCGGAGTCACCTAGTGCAG | 8150 fluorescence intensity (a.u.)
TTTTCCAGATCAGATGTCTCTCTTGCCTGCACACGCGTTCCGGAGTCACCTAGTGCAG | 8640 fluorescence intensity (a.u.)
CATTAGCTAGCTAGCCTCTCCAATCATTTACAGATTAGTTCGGAGTCACCTAGTGCAG | 8400 fluorescence intensity (a.u.)

Sequence | binding signal
TTTTTGTTGACTAAAGACAAATGTTGTGTACGCGTAAGTACGGAGTCACCTAGTGCAG | 8770 fluorescence intensity (a.u.)
CACCCTCAATTCAATGGATCACTTAGTTTATTGGAAATCTCGGAGTCACCTAGTGCAG | 8530 fluorescence intensity (a.u.)
GGTTGACTATTGCTGTGGACCTGCAAGTGTTAGGAGTACTCGGAGTCACCTAGTGCAG | 8100 fluorescence intensity (a.u.)
GGGTGGTGGTGCTTATGAAGCGAGCGCGCGACACGCGAGGCGGAGTCACCTAGTGCAG | 8620 fluorescence intensity (a.u.)
TATCCAAATTTCCAAACTGCTGCTCCTACTTGCTCTCTCCCGGAGTCACCTAGTGCAG | 8520 fluorescence intensity (a.u.)
AATAGCCCACCACAGGCTGGCATCCTTATCTTCTCCCTCTCGGAGTCACCTAGTGCAG | 8050 fluorescence intensity (a.u.)
GTCCAACCAAACGCGCACCCACCAACGCCACCCGAAGCTTCGGAGTCACCTAGTGCAG | 11500 fluorescence intensity (a.u.)
TTAGGGCGGCAGGGGCTATTTCTGTAATTTTTTTTTTTTGCGGAGTCACCTAGTGCAG | 12800 fluorescence intensity (a.u.)
CTCCTCTTCCTCGCCGGCGGCGGTCGCCTCTGAGACCGCTCGGAGTCACCTAGTGCAG | 8670 fluorescence intensity (a.u.)
GCCTCCTCCTCCCAATAGTGAGTTTTTCGATCTCTTTTTTCGGAGTCACCTAGTGCAG | 8210 fluorescence intensity (a.u.)
GAACCGTCCGGGCCTCTAACATCAGCCCATGTATCCATCGCGGAGTCACCTAGTGCAG | 9280 fluorescence intensity (a.u.)
GCCATTTCGCCATTTCGTCGAGAGGTTGCTGTGCCAGTCACGGAGTCACCTAGTGCAG | 9600 fluorescence intensity (a.u.)
TTTGGCAACACTTTTATATTTTGGTCGTTCTTAGGTGATTCGGAGTCACCTAGTGCAG | 8950 fluorescence intensity (a.u.)
CACTGACTCCTCCTCACTTCGCATTGATTCGATCACTCTGCGGAGTCACCTAGTGCAG | 9870 fluorescence intensity (a.u.)
ATTCAGCTCTGAAGTGAAAATACACGCGCATCTGAATTTCCGGAGTCACCTAGTGCAG | 8150 fluorescence intensity (a.u.)
TTCACACCACACCAACATTCGCTAGCTCACTCACTCTACCCGGAGTCACCTAGTGCAG | 8790 fluorescence intensity (a.u.)
ACACCTACATATACACCACTCTGCCCTTTACGCCCGGGGACGGAGTCACCTAGTGCAG | 8270 fluorescence intensity (a.u.)
GGCCTCTTATATAGGTGGGATGCACTGTGAGGAAAATTTTCGGAGTCACCTAGTGCAG | 8480 fluorescence intensity (a.u.)
ATGCCTTTCTTGCCTTCCATGTTTCTTAAGCATAACTTCTCGGAGTCACCTAGTGCAG | 13000 fluorescence intensity (a.u.)
GTTTAACCATTCATTTTATTCAATTTTTTATGTAAATATACGGAGTCACCTAGTGCAG | 8290 fluorescence intensity (a.u.)
AGGGGTCTCTTCTTTTACTTTTGCTTACTTAGTTAAAATTCGGAGTCACCTAGTGCAG | 9570 fluorescence intensity (a.u.)

2 records drawn at random from those above, as already listed:
Sequence | binding signal
GCCATTTCGCCATTTCGTCGAGAGGTTGCTGTGCCAGTCACGGAGTCACCTAGTGCAG | 9600 fluorescence intensity (a.u.)
AATAGCCCACCACAGGCTGGCATCCTTATCTTCTCCCTCTCGGAGTCACCTAGTGCAG | 8050 fluorescence intensity (a.u.)
